# Experimental data from the supplement of paper PMC11732987, “Enantioselective OTUD7B fragment discovery through chemoproteomics screening and high-throughput optimisation” (Communications Chemistry, 2025).
# Sequences of proteins named here, by UniProt entry; tags and fusion partners are left off. A change or cut given only in a name is not applied to a line headed by its entry. Residues count along the entry.
# UniProt P51587: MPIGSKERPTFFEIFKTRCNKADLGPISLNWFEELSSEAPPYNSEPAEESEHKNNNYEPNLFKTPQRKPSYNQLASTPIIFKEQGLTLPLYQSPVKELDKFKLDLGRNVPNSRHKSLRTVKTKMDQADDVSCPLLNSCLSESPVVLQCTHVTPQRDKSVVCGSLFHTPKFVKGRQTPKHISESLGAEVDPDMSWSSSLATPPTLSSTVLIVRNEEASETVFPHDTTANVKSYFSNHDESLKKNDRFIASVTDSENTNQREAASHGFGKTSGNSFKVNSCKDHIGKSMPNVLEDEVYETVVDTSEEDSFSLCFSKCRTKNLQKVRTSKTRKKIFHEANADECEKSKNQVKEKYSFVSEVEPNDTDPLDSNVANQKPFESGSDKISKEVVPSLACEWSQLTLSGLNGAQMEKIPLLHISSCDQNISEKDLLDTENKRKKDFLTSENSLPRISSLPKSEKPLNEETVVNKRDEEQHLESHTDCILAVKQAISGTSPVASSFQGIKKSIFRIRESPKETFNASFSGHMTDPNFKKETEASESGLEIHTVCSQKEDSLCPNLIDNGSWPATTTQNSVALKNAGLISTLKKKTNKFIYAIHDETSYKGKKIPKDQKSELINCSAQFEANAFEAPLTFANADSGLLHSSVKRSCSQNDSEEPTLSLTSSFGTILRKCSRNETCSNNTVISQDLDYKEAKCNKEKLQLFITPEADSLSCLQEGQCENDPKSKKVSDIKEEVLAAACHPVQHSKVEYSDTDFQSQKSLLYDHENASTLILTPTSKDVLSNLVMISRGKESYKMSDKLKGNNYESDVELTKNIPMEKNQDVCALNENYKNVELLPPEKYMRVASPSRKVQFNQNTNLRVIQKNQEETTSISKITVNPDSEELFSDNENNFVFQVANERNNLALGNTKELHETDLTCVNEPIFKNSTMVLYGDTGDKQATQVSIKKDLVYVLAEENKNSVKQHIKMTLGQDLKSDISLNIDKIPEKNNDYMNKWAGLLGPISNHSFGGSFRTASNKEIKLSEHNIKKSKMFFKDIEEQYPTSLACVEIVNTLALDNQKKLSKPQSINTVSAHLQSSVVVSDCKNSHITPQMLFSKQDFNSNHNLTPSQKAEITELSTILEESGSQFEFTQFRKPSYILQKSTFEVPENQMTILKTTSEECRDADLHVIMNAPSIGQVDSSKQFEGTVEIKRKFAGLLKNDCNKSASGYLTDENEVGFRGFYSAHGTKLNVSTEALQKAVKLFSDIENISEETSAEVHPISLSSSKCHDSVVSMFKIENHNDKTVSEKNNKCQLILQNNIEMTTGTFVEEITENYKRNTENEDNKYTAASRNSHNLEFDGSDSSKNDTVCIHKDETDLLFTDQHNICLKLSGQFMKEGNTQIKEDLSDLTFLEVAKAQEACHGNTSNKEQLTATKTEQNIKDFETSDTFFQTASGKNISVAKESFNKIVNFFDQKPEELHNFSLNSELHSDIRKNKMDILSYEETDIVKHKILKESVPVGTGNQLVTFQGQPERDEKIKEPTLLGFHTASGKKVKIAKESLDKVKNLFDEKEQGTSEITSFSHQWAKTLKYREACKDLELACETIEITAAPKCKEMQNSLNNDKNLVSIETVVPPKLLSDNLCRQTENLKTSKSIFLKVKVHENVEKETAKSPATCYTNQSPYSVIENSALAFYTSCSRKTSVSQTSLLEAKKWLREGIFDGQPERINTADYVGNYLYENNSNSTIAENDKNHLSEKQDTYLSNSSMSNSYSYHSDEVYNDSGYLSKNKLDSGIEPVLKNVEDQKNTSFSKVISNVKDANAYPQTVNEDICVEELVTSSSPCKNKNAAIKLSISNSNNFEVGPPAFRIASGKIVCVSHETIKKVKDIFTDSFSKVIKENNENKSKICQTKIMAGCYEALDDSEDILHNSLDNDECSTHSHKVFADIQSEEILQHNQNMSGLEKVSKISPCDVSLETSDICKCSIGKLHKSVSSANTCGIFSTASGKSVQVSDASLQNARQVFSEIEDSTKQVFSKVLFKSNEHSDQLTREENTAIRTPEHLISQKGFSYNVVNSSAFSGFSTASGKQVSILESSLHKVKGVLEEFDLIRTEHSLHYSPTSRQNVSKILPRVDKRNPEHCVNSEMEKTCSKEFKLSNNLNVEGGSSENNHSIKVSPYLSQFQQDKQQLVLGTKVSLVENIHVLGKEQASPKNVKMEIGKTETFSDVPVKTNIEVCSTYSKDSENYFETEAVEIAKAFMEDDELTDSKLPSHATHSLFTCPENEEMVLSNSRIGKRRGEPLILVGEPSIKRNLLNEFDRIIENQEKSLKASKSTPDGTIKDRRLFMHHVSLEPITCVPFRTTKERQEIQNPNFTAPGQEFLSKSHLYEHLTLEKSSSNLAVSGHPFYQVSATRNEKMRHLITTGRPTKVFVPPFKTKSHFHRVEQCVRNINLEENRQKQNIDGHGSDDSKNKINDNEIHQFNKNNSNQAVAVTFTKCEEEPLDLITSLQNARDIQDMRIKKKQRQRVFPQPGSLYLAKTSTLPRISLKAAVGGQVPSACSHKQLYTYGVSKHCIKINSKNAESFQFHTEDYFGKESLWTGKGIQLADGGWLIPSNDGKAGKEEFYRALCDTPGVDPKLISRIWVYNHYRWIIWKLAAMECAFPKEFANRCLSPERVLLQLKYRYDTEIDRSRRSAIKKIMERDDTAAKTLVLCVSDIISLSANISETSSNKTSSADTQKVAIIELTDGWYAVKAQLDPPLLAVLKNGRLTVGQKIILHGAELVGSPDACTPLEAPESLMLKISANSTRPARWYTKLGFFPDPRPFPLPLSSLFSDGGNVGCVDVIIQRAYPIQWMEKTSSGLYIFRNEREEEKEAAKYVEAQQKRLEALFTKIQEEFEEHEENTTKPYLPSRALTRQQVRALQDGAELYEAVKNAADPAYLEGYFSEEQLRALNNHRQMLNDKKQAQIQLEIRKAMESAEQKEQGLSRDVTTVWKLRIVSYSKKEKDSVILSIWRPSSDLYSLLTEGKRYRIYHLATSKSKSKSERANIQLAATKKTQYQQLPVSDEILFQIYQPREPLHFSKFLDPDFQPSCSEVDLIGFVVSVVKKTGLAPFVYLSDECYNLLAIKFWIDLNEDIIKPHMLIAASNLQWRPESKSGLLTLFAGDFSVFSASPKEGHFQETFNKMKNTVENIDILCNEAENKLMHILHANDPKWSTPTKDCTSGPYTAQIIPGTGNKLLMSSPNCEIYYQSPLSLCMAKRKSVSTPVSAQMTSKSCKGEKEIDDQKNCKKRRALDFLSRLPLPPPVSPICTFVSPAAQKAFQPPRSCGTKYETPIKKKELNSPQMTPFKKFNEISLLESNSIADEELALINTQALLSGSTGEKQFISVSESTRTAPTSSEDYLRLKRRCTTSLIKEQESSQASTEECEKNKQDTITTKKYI
# UniProt P42574, 165-186: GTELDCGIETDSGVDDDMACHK
# UniProt Q6PJG6: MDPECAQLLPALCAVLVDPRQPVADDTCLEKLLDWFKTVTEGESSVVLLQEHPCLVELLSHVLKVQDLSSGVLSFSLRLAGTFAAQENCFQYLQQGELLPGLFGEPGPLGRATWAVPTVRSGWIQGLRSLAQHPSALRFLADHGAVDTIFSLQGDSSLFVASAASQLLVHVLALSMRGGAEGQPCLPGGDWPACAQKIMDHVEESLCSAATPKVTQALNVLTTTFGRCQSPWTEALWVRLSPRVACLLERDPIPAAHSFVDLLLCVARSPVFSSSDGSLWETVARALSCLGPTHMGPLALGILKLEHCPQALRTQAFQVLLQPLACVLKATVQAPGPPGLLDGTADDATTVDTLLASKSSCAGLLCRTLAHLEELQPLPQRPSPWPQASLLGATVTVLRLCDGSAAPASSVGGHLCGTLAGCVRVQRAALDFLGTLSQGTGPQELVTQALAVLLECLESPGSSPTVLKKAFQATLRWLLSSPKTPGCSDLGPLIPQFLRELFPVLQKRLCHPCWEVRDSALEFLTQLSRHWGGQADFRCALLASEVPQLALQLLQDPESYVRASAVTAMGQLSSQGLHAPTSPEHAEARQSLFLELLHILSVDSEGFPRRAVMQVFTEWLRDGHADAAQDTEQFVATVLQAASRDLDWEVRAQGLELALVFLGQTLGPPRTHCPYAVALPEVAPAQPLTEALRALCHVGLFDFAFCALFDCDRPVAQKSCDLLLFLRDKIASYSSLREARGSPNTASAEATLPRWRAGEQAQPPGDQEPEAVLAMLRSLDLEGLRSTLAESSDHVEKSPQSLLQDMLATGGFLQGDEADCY
# UniProt Q5PSV4: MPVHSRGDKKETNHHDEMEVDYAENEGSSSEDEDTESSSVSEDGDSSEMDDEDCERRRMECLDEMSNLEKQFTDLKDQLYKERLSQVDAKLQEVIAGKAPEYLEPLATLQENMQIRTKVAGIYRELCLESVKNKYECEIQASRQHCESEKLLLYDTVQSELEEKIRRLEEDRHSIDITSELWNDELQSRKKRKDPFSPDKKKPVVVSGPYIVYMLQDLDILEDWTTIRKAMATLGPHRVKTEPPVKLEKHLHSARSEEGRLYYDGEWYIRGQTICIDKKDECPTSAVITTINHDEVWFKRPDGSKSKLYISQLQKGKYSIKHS
# UniProt Q14781, whole entry, looked up: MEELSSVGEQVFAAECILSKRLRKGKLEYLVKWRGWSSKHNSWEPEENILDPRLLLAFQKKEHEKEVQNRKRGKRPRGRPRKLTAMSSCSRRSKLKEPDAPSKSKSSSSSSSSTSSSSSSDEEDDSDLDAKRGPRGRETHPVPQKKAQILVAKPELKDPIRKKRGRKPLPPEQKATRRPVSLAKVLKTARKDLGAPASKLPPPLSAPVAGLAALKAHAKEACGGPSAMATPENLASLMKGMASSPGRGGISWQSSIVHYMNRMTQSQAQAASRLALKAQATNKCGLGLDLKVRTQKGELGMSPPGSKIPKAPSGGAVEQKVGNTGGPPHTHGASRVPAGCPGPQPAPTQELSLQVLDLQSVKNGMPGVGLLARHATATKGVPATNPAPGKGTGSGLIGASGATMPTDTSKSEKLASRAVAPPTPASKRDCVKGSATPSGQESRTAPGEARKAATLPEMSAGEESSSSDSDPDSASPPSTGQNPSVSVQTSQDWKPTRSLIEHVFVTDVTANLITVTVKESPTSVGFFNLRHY
# UniProt Q7Z569: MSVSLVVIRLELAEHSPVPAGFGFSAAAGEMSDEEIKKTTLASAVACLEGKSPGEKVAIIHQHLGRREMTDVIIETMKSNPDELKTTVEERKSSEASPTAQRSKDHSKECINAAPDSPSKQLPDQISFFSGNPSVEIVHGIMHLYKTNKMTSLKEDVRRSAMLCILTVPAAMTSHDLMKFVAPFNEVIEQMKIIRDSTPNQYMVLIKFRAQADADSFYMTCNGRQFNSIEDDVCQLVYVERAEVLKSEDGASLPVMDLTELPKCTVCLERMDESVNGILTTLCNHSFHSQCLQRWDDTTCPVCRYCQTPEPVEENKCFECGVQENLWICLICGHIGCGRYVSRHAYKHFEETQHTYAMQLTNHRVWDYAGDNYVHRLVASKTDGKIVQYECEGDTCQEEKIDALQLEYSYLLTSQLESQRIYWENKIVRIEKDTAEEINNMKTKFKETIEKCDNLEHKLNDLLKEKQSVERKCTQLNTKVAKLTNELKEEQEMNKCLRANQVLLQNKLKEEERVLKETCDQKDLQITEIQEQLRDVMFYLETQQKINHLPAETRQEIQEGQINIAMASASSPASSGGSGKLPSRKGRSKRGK
# UniProt Q9NPI1: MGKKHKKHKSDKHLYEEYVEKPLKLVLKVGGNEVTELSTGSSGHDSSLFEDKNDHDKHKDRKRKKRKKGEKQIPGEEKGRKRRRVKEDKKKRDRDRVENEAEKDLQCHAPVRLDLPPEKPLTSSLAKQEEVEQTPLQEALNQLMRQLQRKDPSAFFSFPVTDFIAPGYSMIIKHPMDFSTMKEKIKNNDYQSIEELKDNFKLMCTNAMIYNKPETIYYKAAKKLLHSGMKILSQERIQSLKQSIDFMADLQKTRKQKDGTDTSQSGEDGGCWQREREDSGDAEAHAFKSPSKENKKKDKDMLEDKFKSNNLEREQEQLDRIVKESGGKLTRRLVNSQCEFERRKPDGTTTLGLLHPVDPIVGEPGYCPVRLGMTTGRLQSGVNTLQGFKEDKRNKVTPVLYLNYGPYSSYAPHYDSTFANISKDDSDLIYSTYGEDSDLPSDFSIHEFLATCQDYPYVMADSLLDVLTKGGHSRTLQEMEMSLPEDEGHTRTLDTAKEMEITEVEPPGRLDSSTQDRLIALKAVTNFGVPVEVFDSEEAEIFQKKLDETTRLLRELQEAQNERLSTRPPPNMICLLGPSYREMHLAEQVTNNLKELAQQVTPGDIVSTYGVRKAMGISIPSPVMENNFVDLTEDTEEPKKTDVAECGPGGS
# UniProt Q96GS4, 168-193: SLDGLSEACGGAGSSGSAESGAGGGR
# UniProt Q8TCD1: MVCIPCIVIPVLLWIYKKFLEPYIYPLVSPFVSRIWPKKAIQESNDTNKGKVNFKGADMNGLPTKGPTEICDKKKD
# Some of the results follow. The data scatter; read single values as rough.
# Compound: ClCC(=O)N[C@@H]1CCCc2ccccc12
# Assay: log2 mean competition ratio of IA-DTB cysteine labelling (DMSO/compound) (log2 ratio); higher = stronger cysteine engagement by compound
# Details: 50 µM; treatment time: 4 h; cell line lysate: HEK293T
# Procedure: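 IA-DTB competitive cysteine chemoproteomics in HEK293T RIPA lysate. Lysates were treated with compound 29 or 30 at 50 or 200 µM for 4 h, then IA-DTB (500 µM, 1 h), trypsin-digested, NeutrAvidin-enriched and analysed by diaPASEF. Competition ratio = intensity DMSO / intensity compound (n=4 treated, n=64 DMSO); binding: mean log2 CR ≥ 1 and p ≤ 0.05 plus QC filters. Target is the cysteine site.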
row,Target,log2 mean competition ratio
1,BRCA2 C2117 (UniProt P51587),-0.041
2,BPGM C23 (UniProt P07738),-0.142
3,CADPS2 C919,-0.208
4,CAPNS1 C144,-0.064
5,"CASP3_(C170,C170,C184,C184) (UniProt P42574)",-0.166
6,BRCA2 C341 (UniProt P51587),0.103
7,BRCA2 C822 (UniProt P51587),0.233
8,CARMIL1 C235,-0.176
9,BRCA2 C3198 (UniProt P51587),0.0687
10,CAST C328 (UniProt P20810),0.0425
11,BRIP1 C125 (UniProt Q9BX63),-0.298
12,BRAT1 C246 (UniProt Q6PJG6),-0.0988
13,CADPS2 C218,-0.107
14,C1GALT1 C232 (UniProt Q9NS00),0.0512
15,BPTF C1241,0.223
16,CARS1 C506,-0.0682
17,C1orf21 C114,-0.195
18,BRMS1L C127 (UniProt Q5PSV4),0.215
19,CBX2 C89 (UniProt Q14781),0.0404
20,BRAP C47 (UniProt Q7Z569),-0.17
21,BRD7 C338 (UniProt Q9NPI1),0.00668
22,BRCA1 C1270 (UniProt P38398),0.264
23,BORCS6 C176 (UniProt Q96GS4),-0.135
24,C15orf61 C84,0.206
25,BRCA1 C1103 (UniProt P38398),-0.284
26,CAD C787,0.108
27,BRAT1 C308 (UniProt Q6PJG6),0.161
28,C18orf32 C71 (UniProt Q8TCD1),-0.29
29,CBR3 C122 (UniProt O75828),0.0463
30,BRD7 C107 (UniProt Q9NPI1),-0.0587

# Pulled one by one from above (2):
row,Target,log2 mean competition ratio
29,CBR3 C122 (UniProt O75828),0.0463
12,BRAT1 C246 (UniProt Q6PJG6),-0.0988
